Data taken from the supplement of paper PMC9233669.
This sample is rich in variants without activity.

How the values were obtained:
biotinyl-Ile-oxazolone = assay: self-aminoacylation, catalytic enhancement (BIO) (fold over background); higher = more active; k-Seq, kA / k0A0; sequences stand for … in GGGAAUGGAUCCACAUCUACGAAUUC…UUCACUGCAGACUUGACGAAGCUG
Procedure, shortened: (§1)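 Mutagenized RNA pools with a 21-nt variable region (0.43 μM) were reacted with each biotinyl-aminoacyl-oxazolone at 2–1250 μM for 90 minutes at room temperature, in 50 μL HEPES/NaCl/KCl/MgCl2/CaCl2 buffer containing 5% acetonitrile at pH 6.9–7.0. RNA captured on streptavidin was quantified by triplicate qPCR and by Illumina sequencing. The fraction reacted for each sequence was fit to a pseudo-first-order model with bootstrapping, and catalytic enhancement is the median kA divided by the uncatalyzed rate, taken as the low-activity peak of a bimodal Gaussian fit.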

biotinyl-Met-oxazolone = assay: self-aminoacylation, catalytic enhancement (BMO) (fold over background); higher = more active; k-Seq, kA / k0A0; sequences stand for … in GGGAAUGGAUCCACAUCUACGAAUUC…UUCACUGCAGACUUGACGAAGCUG
Procedure, shortened: as §1

biotinyl-Phe-oxazolone = assay: self-aminoacylation, catalytic enhancement (BFO) (fold over background); higher = more active; k-Seq, kA / k0A0; sequences stand for … in GGGAAUGGAUCCACAUCUACGAAUUC…UUCACUGCAGACUUGACGAAGCUG
Procedure, shortened: as §1

biotinyl-Leu-oxazolone = assay: self-aminoacylation, catalytic enhancement (BLO) (fold over background); higher = more active; k-Seq, kA / k0A0; sequences stand for … in GGGAAUGGAUCCACAUCUACGAAUUC…UUCACUGCAGACUUGACGAAGCUG
Procedure, shortened: as §1

biotinyl-Val-oxazolone = assay: self-aminoacylation, catalytic enhancement (BVO) (fold over background); higher = more active; k-Seq, kA / k0A0; sequences stand for … in GGGAAUGGAUCCACAUCUACGAAUUC…UUCACUGCAGACUUGACGAAGCUG
Procedure, shortened: as §1

biotinyl-Trp-oxazolone = assay: self-aminoacylation, catalytic enhancement (BWO) (fold over background); higher = more active; k-Seq, kA / k0A0; sequences stand for … in GGGAAUGGAUCCACAUCUACGAAUUC…UUCACUGCAGACUUGACGAAGCUG
Procedure, shortened: as §1

Row | Sequence | self-aminoacylation (biotinyl-Ile-oxazolone) | self-aminoacylation (biotinyl-Met-oxazolone) | self-aminoacylation (biotinyl-Phe-oxazolone) | self-aminoacylation (biotinyl-Leu-oxazolone) | self-aminoacylation (biotinyl-Val-oxazolone) | self-aminoacylation (biotinyl-Trp-oxazolone)
1 | CUACUACAAACAAUCGGUCCG [Fam1A.1 aminoacylation ribozyme variant] | 0.68 | 0.953 | 0.697 | 0.78 | 1.02 | 0.846
2 | CUACUACAACCAAUCGGUCUG [Fam1A.1 aminoacylation ribozyme variant] | 0.64 | 0.646 | 0.736 | 0.608 | 0.775 | 0.627
3 | CUACUACCAACAAUCGGUCUG [Fam1A.1 aminoacylation ribozyme variant] | 0.756 | 0.694 | 0.998 | 0.916 | 0.845 | 0.915
4 | CUACUCCAAACAAUCAGUCUG [Fam1A.1 aminoacylation ribozyme variant] | 0.71 | 0.67 | 1.53 | 0.601 | 0.728 | 1.05
5 | CUACUCCAAACAAUCGGUCGG [Fam1A.1 aminoacylation ribozyme variant] | 1.13 | 1.51 | 0.931 | 1.62 | 1.21 | 0.927
6 | CUACUCCAAACAAUCGUUCUG [Fam1A.1 aminoacylation ribozyme variant] | 0.599 | 0.545 | 0.796 | 0.675 | 0.594 | 0.457
7 | CUACUGCAAACAAUCGGUAUG [Fam1A.1 aminoacylation ribozyme variant] | 0.864 | 0.878 | 0.575 | 0.764 | 0.91 | 1.06
8 | CUACUGCAAACAAUCUGUCUG [Fam1A.1 aminoacylation ribozyme variant] | 0.67 | 0.629 | 0.948 | 0.571 | 0.668 | 0.52
9 | CUACUGCAAGCAAUCGGUCUG [Fam1A.1 aminoacylation ribozyme variant] | 1.08 | 0.977 | 1.21 | 0.944 | 1.02 | 0.845
10 | CUACUGCACACAAUCGGUCUG [Fam1A.1 aminoacylation ribozyme variant] | 0.869 | 0.663 | 1.61 | 0.81 | 0.779 | 1.17
11 | CUACUGCGAACAAUCGGUCUG [Fam1A.1 aminoacylation ribozyme variant] | 0.874 | 1.34 | 0.697 | 1.01 | 0.938 | 0.715
12 | CUACUUAAAACAACCGGUCUG [Fam1A.1 aminoacylation ribozyme variant] | 1 | 1.19 | 0.544 | 0.929 | 0.91 | 0.742
13 | CUACUUAAAAGAAUCGGUCUG [Fam1A.1 aminoacylation ribozyme variant] | 0.885 | 0.769 | 0.707 | 0.787 | 0.882 | 0.595
14 | CUACUUAAUACAAUCGGUCUG [Fam1A.1 aminoacylation ribozyme variant] | 0.782 | 0.89 | 0.835 | 0.761 | 0.849 | 0.631
15 | CUACUUCAAAAAAACGGUCUG [Fam1A.1 aminoacylation ribozyme variant] | 0.791 | 0.713 | 0.809 | 0.693 | 0.685 | 0.553
16 | CUACUUCAAAAAAUCGGUCUC [Fam1A.1 aminoacylation ribozyme variant] | 0.86 | 0.693 | 8.87 | 0.755 | 0.712 | 5.93
17 | CUACUUCAAAAAAUGGGUCUG [Fam1A.1 aminoacylation ribozyme variant] | 0.997 | 0.964 | 0.618 | 0.942 | 0.727 | 0.796
18 | CUACUUCAAACAAACCGUCUG [Fam1A.1 aminoacylation ribozyme variant] | 0.94 | 0.825 | 0.619 | 0.63 | 0.786 | 0.899
19 | CUACUUCAAACAAACGCUCUG [Fam1A.1 aminoacylation ribozyme variant] | 0.627 | 0.567 | 0.48 | 0.559 | 0.788 | 0.502
20 | CUACUUCAAACAACCGGACUG [Fam1A.1 aminoacylation ribozyme variant] | 0.99 | 0.791 | 1.11 | 0.7 | 0.855 | 0.51
21 | CUACUUCAAACAAUAGGCCUG [Fam1A.1 aminoacylation ribozyme variant] | 0.727 | 0.534 | 1.06 | 0.688 | 0.79 | 0.524
22 | CUACUUCAAACAAUAGGUCCG [Fam1A.1 aminoacylation ribozyme variant] | 0.645 | 0.585 | 0.734 | 0.564 | 0.551 | 0.348
23 | CUACUUCAAACAAUAGGUUUG [Fam1A.1 aminoacylation ribozyme variant] | 0.789 | 0.583 | 0.819 | 0.749 | 0.686 | 0.528
